Here are results for 42 sequences from PMC7819943, “Rice protein-binding microarrays: a tool to detect cis-acting elements near promoter regions in rice”.

Protein sequences, listed by entry. Tags and fused reporters are not part of them.
UniProt Q0JBA9, entry or part of it: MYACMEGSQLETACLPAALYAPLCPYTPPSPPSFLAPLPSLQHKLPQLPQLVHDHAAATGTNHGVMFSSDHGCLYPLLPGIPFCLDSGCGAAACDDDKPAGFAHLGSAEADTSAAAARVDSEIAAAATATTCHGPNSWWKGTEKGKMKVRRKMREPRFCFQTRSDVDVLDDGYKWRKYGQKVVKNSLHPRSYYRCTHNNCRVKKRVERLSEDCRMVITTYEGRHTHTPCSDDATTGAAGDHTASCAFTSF

The list shows a part of the results.

In this experiment the target is OsWRKY34 (Oryza sativa, UniProt Q0JBA9 1-250). Briefly: protein-binding microarray (RPBM); PBS, 2% BSA, 51.3 ng/ul salmon testes DNA, 50 uM zinc acetate, 200 nM TF, 25 C, 1 h; high values mean tight binding. The following applies: protein: recombinant; tags: N-terminal polyhistidine and DsRed monomer fusion (pET32a); label: CyDye5-dUTP incorporated in the synthesized complementary strand; 3' TTTTT single-stranded linker to array surface; dsDNA, one strand shown. An outline of the steps: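 In PBS with 2% BSA, salmon testes DNA and 50 µM zinc acetate, 200 nM protein was incubated on a custom Agilent array at 25 °C for 1 h and then washed off. The array had been made double-stranded by primer extension with Cy5-dUTP and blocked with 2% BSA. The proteins were transcription factors fused N-terminally to polyhistidine and DsRed, expressed in E. coli BL21-CodonPlus and purified on Ni–NTA. The binding signal is per-feature fluorescence intensity (arbitrary units) from an Axon 4000B scanner.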
“TCACCAAACCGTTTCATCCATTCTCTTTTCTGGATTTAAACGGAGTCACCTAGTGCAG”: the binding signal is 10500 fluorescence intensity (a.u.).

Consider “GCGGTTCGAACGCGCGCGGGTGCTGACTTGGCGTTGACCTCGGAGTCACCTAGTGCAG”, for which the binding signal was 10900 fluorescence intensity (a.u.).

For “TCCATGTGCTCCAACCTTGAGGAATTGCCTCGTTCCATATCGGAGTCACCTAGTGCAG”, the binding signal was 9130 fluorescence intensity (a.u.).

In the case of “CGCCGCTTTTCTCTCTCATCTTTTATCTCATTAAAATATGCGGAGTCACCTAGTGCAG”, the binding signal is 8040 fluorescence intensity (a.u.).

Regarding “ACGCTGACGCAGATCAACCAACCACTACTACCGCCCGCAACGGAGTCACCTAGTGCAG”, the binding signal was 9430 fluorescence intensity (a.u.).

Turning to “TTTCTCCAGCTAGCCAGCGCGGTGCTTTGACTTTGTCATCCGGAGTCACCTAGTGCAG”, the binding signal was 9110 fluorescence intensity (a.u.).

In the case of “CCGCACCACCACCGCCTCCCCTCCGTTTCCCCTCCCTCACCGGAGTCACCTAGTGCAG”, the binding signal was 9690 fluorescence intensity (a.u.).

On to “CCTTGTGTACTCTCGTGCTACTCTAGTTTCCATTCCATTTCGGAGTCACCTAGTGCAG”, for which the binding signal was 10600 fluorescence intensity (a.u.).

Turning to “GCTTTTCTCTTCCTTTTCGCTCGCTCTCAAGGCCCATAACCGGAGTCACCTAGTGCAG”, the binding signal is 9530 fluorescence intensity (a.u.).

Consider “GATCTCTCCGGGACTATCTATCTCCATTTCTCTCCAAGGCCGGAGTCACCTAGTGCAG”, for which the binding signal is 9560 fluorescence intensity (a.u.).

Turning to “GAGTTTATTTTTTACATGGTCGGTTCCTGTGAGTTCCTAACGGAGTCACCTAGTGCAG”, the binding signal is 9420 fluorescence intensity (a.u.).

With “AGCACCGGTACAGTTTGACCTTTTTTTTTTGCACTACACTCGGAGTCACCTAGTGCAG”, the binding signal is 11700 fluorescence intensity (a.u.).

With “AACTGGATATTCCCATTCAATACCACCACTCGTCGTCCCGCGGAGTCACCTAGTGCAG”, the binding signal is 10100 fluorescence intensity (a.u.).

Consider “ACCACTTCTACATGTCTTCTTCTTGTCTCGATGGAGTGGACGGAGTCACCTAGTGCAG”, for which the binding signal is 8580 fluorescence intensity (a.u.).

“TTTCCTTCTGCTAATGTTTGTTTTGACTTGTCCATATCTTCGGAGTCACCTAGTGCAG”: the binding signal was 12400 fluorescence intensity (a.u.).

On to “CCCTGGTTTCCGTGTCCAACGTCTGACCATTCGTTTTATTCGGAGTCACCTAGTGCAG”, for which the binding signal is 9300 fluorescence intensity (a.u.).

On to “AACTCTTTATATTCTACTGATCCTATGTGGGTTCCAACAACGGAGTCACCTAGTGCAG”, for which the binding signal is 8240 fluorescence intensity (a.u.).

Turning to “TACTTGTGTCCGCCTCGCCGCGAGCCCACGAACGCGACCACGGAGTCACCTAGTGCAG”, the binding signal is 8370 fluorescence intensity (a.u.).

As for “CCAACAGGGCGGAACATGATTGCGTTTTTGAGGTTTTCTTCGGAGTCACCTAGTGCAG”, the binding signal was 8170 fluorescence intensity (a.u.).

“CTACTCAGCCATTTATTGTTTACCATATGCCATTGATAACCGGAGTCACCTAGTGCAG”: the binding signal is 9020 fluorescence intensity (a.u.).

Take “TAGTCAAACGTTGAAAAAAAAAGTCAACGGCGTCACACATCGGAGTCACCTAGTGCAG”: the binding signal is 20900 fluorescence intensity (a.u.).

Take “TTACAGCGCCATATCCTATATATCGTACCTACGACCAAAACGGAGTCACCTAGTGCAG”: the binding signal was 8090 fluorescence intensity (a.u.).

Take “CATTTGCTGAGTTCTAATCATTCAGGCAGATGCCTCTTTCCGGAGTCACCTAGTGCAG”: the binding signal was 8580 fluorescence intensity (a.u.).

Consider “TTCTCATATTTCTATTATCGTTGCCCACCTAGTGTTTCTTCGGAGTCACCTAGTGCAG”, for which the binding signal was 8880 fluorescence intensity (a.u.).

“TCGTGCCGGTTGGTTGGTGCTTTGGCCCCTGTCTCTCCTTCGGAGTCACCTAGTGCAG”: the binding signal is 10200 fluorescence intensity (a.u.).

As to “ATCATCAACAGCTCAGTTCATCCGTGCCGTGTTAATTTAGCGGAGTCACCTAGTGCAG”, the binding signal was 9700 fluorescence intensity (a.u.).

On to “GCGAAATCCGGCCTGCACCGTTATACCTTACCTGGTCCCACGGAGTCACCTAGTGCAG”, for which the binding signal was 8950 fluorescence intensity (a.u.).

Regarding “GTTCTTCTTGGTTCTGGTTGGTTAGCGGAGAGCAGCAGTGCGGAGTCACCTAGTGCAG”, the binding signal was 9060 fluorescence intensity (a.u.).

“ATTTTCCTTGTTTTGATGTTTTCTGGTTGGGGAAGGGTTACGGAGTCACCTAGTGCAG”: the binding signal is 24600 fluorescence intensity (a.u.).

As to “AACCCCACGTGGCAGCCTCTGTGTCTATGGGCCCCACCTCCGGAGTCACCTAGTGCAG”, the binding signal is 8560 fluorescence intensity (a.u.).

Regarding “CATTTTCTTGTGAATCGCTGACCGTCTAGACTCAAGCTTTCGGAGTCACCTAGTGCAG”, the binding signal was 9490 fluorescence intensity (a.u.).

With “AACCTCCACACACCCGCTCATACTACAAGCTAGGTAATCACGGAGTCACCTAGTGCAG”, the binding signal was 8040 fluorescence intensity (a.u.).

For the sequence “CATATATCCAATTCATTAGACGGTTGTATCATATCTTCACCGGAGTCACCTAGTGCAG”, the binding signal was 10600 fluorescence intensity (a.u.).

Regarding “TGCTCGCTCGTTTGATCCATCCTAGTTGCTGAGACGTTTCCGGAGTCACCTAGTGCAG”, the binding signal was 13200 fluorescence intensity (a.u.).

For the sequence “CGCGCGGATTTGCCGTTACCACCTTCTGCCTGCCTGCGCCCGGAGTCACCTAGTGCAG”, the binding signal was 10100 fluorescence intensity (a.u.).

Regarding “TGGCGGATTGATCTGGAGGTGGGCTTGTTGGGGTTGCTGTCGGAGTCACCTAGTGCAG”, the binding signal is 18200 fluorescence intensity (a.u.).

With “TGTTGCCATTCTCATCTACAAGTGCTGCAAGCTGCGCATGCGGAGTCACCTAGTGCAG”, the binding signal is 8240 fluorescence intensity (a.u.).

In the case of “CCACATCGCCCCGCCCTGCCCTTTAAATATCCTTTGGCCCCGGAGTCACCTAGTGCAG”, the binding signal is 9390 fluorescence intensity (a.u.).

“CGATAAGTGATAACTCCGCCATTTTCGCAGCCTCGCTCCACGGAGTCACCTAGTGCAG”: the binding signal was 9280 fluorescence intensity (a.u.).

As to “GTAGTCCATTGTAAATCACTAAATTAGTGTGGTCATCGCACGGAGTCACCTAGTGCAG”, the binding signal was 8950 fluorescence intensity (a.u.).

On to “ATTAATCATATGGTAATTACTTGCATCGTTTCTGTGCCACCGGAGTCACCTAGTGCAG”, for which the binding signal was 8350 fluorescence intensity (a.u.).

For “CAACAACATCATCATCGCTCACATCCGCATCTCCACACAACGGAGTCACCTAGTGCAG”, the binding signal was 13500 fluorescence intensity (a.u.).
